Melanoma cell counts after drug treatment

All values are for the listed drug together with MK-1775 (20 nM): C=CCn1c(=O)c2cnc(Nc3ccc(N4CCN(C)CC4)cc3)nc2n1-c1cccc(C(C)(C)O)n1

Drugs:
GW2580 (1000 nM): COc1ccc(COc2ccc(Cc3cnc(N)nc3N)cc2OC)cc1
U73122 (400 nM): COc1ccc2c(c1)CCC1C2CCC2(C)C(NCCCCCCN3C(=O)C=CC3=O)CCC12 (centres unmarked)
pioglitazone (2000 nM): CCc1ccc(CCOc2ccc(CC3SC(=O)NC3=O)cc2)nc1 (centres unmarked)
docetaxel (0.1 nM): CC(=O)O[C@@]12CO[C@@H]1C[C@H](O)[C@@]1(C)C(=O)[C@H](O)C3=C(C)[C@@H](OC(=O)[C@H](O)[C@@H](NC(=O)OC(C)(C)C)c4ccccc4)C[C@@](O)([C@@H](OC(=O)c4ccccc4)[C@H]21)C3(C)C
BI-D1870 (200 nM): CC(C)CCN1c2nc(Nc3cc(F)c(O)c(F)c3)ncc2N(C)C(=O)C1C (centres unmarked)
LFM-A13 (2000 nM): C/C(O)=C(\C#N)C(=O)Nc1cc(Br)ccc1Br
TCS401 (1670 nM): O=C(O)C(=O)Nc1sc2c(c1C(=O)O)CCNC2
GW9662 (2000 nM): O=C(Nc1ccccc1)c1cc([N+](=O)[O-])ccc1Cl
T0901317 (1400 nM): O=S(=O)(c1ccccc1)N(CC(F)(F)F)c1ccc(C(O)(C(F)(F)F)C(F)(F)F)cc1
nilotinib (200 nM): Cc1cn(-c2cc(NC(=O)c3ccc(C)c(Nc4nccc(-c5cccnc5)n4)c3)cc(C(F)(F)F)c2)cn1
palbociclib (40 nM): CC(=O)c1c(C)c2cnc(Nc3ccc(N4CCNCC4)cn3)nc2n(C2CCCC2)c1=O
XAV939 (2000 nM): Oc1nc(-c2ccc(C(F)(F)F)cc2)nc2c1CSCC2
KU-0063794 (20 nM): COc1ccc(-c2ccc3c(N4CCOCC4)nc(N4C[C@@H](C)O[C@@H](C)C4)nc3n2)cc1CO
GW0742 (2000 nM): Cc1cc(SCc2sc(-c3ccc(C(F)(F)F)c(F)c3)nc2C)ccc1OCC(=O)O
etoposide (20 nM): COc1cc([C@@H]2c3cc4c(cc3[C@@H](O[C@@H]3O[C@@H]5CO[C@@H](C)O[C@H]5[C@H](O)[C@H]3O)[C@H]3COC(=O)[C@H]23)OCO4)cc(OC)c1O
bortezomib (1 nM): CC(C)C[C@H](NC(=O)[C@H](Cc1ccccc1)NC(=O)c1cnccn1)B(O)O
A-769662 (2000 nM): N#Cc1c(O)c2c(-c3ccc(-c4ccccc4O)cc3)csc2[nH]c1=O
NVP-TAE684 (80 nM): COc1cc(N2CCC(N3CCN(C)CC3)CC2)ccc1Nc1ncc(Cl)c(Nc2ccccc2S(=O)(=O)C(C)C)n1

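Human melanoma cell lines in 1,536-well plates were treated with two drugs together for 72 h, then fixed, stained and imaged. Values are the number of DAPI-stained nuclei as a percentage of the DMSO control: 100 is no effect, lower means fewer cells. Concentrations were fixed for each drug; these are the lower of two levels, a fifth of the higher. No replicate spread is given; individual values may be noisy.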
An unselected part of the screen is shown.
An entry leaves out what has no value listed here.
A dash means that no value is listed here.

Partner,G-361,LB2518-MEL,COLO 792,MEL-HO,LOX IMVI,501mel,A375,A2058,COLO 829,C32,IPC-298,A101D,IST-MEL1,COLO 800
NVP-TAE684,87.1,81.4,95.6,86.3,91.9,95.2,53.7,86.8,91.2,84.0,94.5,75.1,100,55.9
palbociclib,80.8,70.4,65.8,79.0,72.7,-,39.0,94.3,80.9,70.0,96.3,70.1,86.2,49.5
pioglitazone,50.0,75.1,103,82.8,103,82.7,58.7,91.2,85.6,103,92.5,74.4,96.7,104
BI-D1870,86.6,75.1,93.4,90.1,117,69.2,52.6,105,92.7,86.5,100,73.4,106,95.7
TCS401,78.2,86.6,80.9,88.7,112,90.0,37.4,107,84.0,101,99.7,79.4,99.9,88.4
nilotinib,98.6,97.4,104,95.1,170,-,76.6,104,115,101,96.1,84.9,102,154
bortezomib,7.9,47.7,89.1,95.6,37.9,-,64.7,86.3,70.1,83.7,86.1,29.3,90.2,74.2
docetaxel,28.0,62.6,38.0,55.7,84.9,-,22.3,9.1,45.8,67.9,61.4,63.5,61.4,31.0
KU-0063794,86.8,106,80.7,98.8,92.9,101,61.7,106,90.7,92.9,87.6,81.1,108,140
A-769662,94.4,88.1,79.5,96.9,96.2,98.2,60.0,101,112,122,95.9,88.0,99.7,126
GW0742,88.1,85.8,108,103,114,109,48.2,105,71.0,98.9,106,86.1,106,83.6
T0901317,90.2,98.8,98.9,102,80.7,69.6,82.7,93.6,80.6,94.7,85.6,75.1,100,109
etoposide,84.1,76.7,103,97.2,89.6,-,52.8,84.3,94.7,101,106,62.0,104,118
XAV939,84.4,104,67.1,84.9,164,71.7,55.5,88.5,63.9,103,96.4,72.3,93.3,151
U73122,94.6,83.7,88.7,102,59.5,70.9,34.8,70.7,87.7,77.9,96.9,77.7,97.9,73.8
GW2580,89.1,92.3,97.2,83.1,94.4,101,76.0,116,102,101,103,78.8,101,96.3
LFM-A13,107,-,88.8,90.7,63.1,-,48.3,96.5,90.9,90.6,99.2,85.9,108,54.2
GW9662,91.5,111,95.9,115,70.0,101,59.0,104,84.7,98.8,96.2,84.7,103,66.6

The last 2 entries again:

- LFM-A13 : G-361: 107; COLO 792: 88.8; MEL-HO: 90.7; LOX IMVI: 63.1; A375: 48.3; A2058: 96.5; COLO 829: 90.9; C32: 90.6; IPC-298: 99.2; A101D: 85.9; IST-MEL1: 108; COLO 800: 54.2
- GW9662 : G-361: 91.5; LB2518-MEL: 111; COLO 792: 95.9; MEL-HO: 115; LOX IMVI: 70.0; 501mel: 101; A375: 59.0; A2058: 104; COLO 829: 84.7; C32: 98.8; IPC-298: 96.2; A101D: 84.7; IST-MEL1: 103; COLO 800: 66.6

Source: doi:10.1371/journal.pone.0140310, primary screening data, rounded.